These are yes or no findings as the source states them, for the method shown. For some of these results: In cells and extracts the contact can be indirect. Some entries that bind do so weakly or less than the wild type. For some of these results: Where a sequence is shown, tags or fusion partners need not be part of it. Blank lines part the entries; values can stand above or below the molecule they belong to.
Legend:
[1] = target: T1, GST-AGB1 (Arabidopsis) (UniProt P49177); assay: pull-down; semi-in vivo: GST-AGB1 or GST on glutathione Sepharose beads, incubated 2 h at 4°C with extracts of 35S::BES1-GFP-Flag Arabidopsis seedlings treated with 2 μM BL for 2 h; 50 mM Tris–HCl pH 7.5, 150 mM NaCl, 1 mM EDTA, 10% glycerol, 0.2% Triton X-100; detected with anti-Flag antibody; only the target purified
T1 sequence: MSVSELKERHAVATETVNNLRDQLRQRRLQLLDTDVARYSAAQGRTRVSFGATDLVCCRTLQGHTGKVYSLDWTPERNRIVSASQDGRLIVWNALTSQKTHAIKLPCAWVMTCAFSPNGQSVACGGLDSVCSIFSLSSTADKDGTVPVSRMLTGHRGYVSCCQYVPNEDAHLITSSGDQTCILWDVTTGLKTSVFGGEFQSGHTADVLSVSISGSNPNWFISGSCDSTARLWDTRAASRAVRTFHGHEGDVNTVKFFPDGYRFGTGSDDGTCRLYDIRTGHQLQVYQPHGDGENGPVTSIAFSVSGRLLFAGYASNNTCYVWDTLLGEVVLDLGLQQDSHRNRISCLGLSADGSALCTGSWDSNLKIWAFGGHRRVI

Sequences of proteins named here, by UniProt entry; tags and fusion partners are left off.
UniProt Q9LN63: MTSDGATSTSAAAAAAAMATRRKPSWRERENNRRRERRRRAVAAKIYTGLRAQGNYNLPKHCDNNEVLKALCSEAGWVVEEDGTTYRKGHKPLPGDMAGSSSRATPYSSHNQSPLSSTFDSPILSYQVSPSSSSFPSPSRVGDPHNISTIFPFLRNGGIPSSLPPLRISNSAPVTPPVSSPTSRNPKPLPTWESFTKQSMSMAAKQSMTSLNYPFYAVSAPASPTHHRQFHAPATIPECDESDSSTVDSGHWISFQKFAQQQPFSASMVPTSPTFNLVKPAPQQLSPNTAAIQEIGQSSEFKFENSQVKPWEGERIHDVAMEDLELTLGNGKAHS
UniProt P0A850: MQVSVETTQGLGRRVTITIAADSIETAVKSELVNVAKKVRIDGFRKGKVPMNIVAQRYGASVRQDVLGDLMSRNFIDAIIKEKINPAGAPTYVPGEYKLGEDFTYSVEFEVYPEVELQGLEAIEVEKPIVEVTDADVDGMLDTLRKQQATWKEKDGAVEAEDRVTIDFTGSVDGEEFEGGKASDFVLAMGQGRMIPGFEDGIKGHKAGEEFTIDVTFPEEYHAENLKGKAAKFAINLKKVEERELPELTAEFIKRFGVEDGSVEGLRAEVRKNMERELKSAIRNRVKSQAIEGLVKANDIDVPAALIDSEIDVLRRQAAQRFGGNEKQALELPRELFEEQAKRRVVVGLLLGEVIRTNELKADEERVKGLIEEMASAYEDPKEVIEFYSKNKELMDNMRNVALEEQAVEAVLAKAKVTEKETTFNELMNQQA

[2] = target: GST-BES1 (Arabidopsis) (UniProt Q9LN63); assay: pull-down; GST-BES1 held on glutathione beads (MagneGST), His-AGB1 or His-TF added, lysis buffer without EDTA, 2 h at 4°C; prey detected with anti-His antibody; both purified
[3] = target: GAL4 DNA-binding domain (BD) fused to full-length BES1 (Arabidopsis) (UniProt Q9LN63); assay: two-hybrid; GAL4 system, pGBKT7 baits (BES1 and deletions) and pGADT7 prey (AGB1) in strain AH109; growth on SD-T-L-H-A plates, 5 days
[4] = target: T2, BIM1 (LexA yeast two-hybrid fusion) (Arabidopsis) (UniProt Q9LEZ3); assay: two-hybrid; LexA system, pLexA and pB42AD fusions with p8op-LacZ in strain EGY48; β-galactosidase activity and plate assay
T2 sequence: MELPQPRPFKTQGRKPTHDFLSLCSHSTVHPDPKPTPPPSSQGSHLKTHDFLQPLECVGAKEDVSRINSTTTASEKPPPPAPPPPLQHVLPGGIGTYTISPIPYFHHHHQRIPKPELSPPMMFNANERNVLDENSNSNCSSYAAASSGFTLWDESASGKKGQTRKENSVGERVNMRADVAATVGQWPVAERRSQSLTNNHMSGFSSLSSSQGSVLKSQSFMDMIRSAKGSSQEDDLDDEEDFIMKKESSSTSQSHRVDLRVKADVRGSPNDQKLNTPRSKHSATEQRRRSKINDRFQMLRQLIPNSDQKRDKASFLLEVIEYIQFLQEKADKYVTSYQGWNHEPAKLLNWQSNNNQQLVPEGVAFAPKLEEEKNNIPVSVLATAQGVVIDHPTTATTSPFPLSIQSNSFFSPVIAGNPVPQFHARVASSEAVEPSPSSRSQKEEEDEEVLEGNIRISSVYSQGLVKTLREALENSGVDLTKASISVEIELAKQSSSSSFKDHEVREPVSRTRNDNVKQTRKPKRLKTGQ

Molecule: BES1–GFP–Flag (from UniProt Q9LN63 1-335)
binding [1]: binds

B1: GAL4 AD fused to full-length AGB1 (AD-AGB1) (protein, UniProt P49177 1-377)
chain: T1 sequence
binding [3]: binds

The next lines start with the values.

binding [2]: no binding
Molecule: histidine-tagged trigger factor (His-TF) (from UniProt P0A850 1-432)

binding [4]: binds
B2: full-length AGB1 (LexA yeast two-hybrid fusion) (protein, UniProt P49177 1-377)
chain: T1 sequence

Reference: publication PMC5767185, “Arabidopsis G-Protein β Subunit AGB1 Interacts with BES1 to Regulate Brassinosteroid Signaling and Cell Elongation” (Frontiers in Plant Science, 2017)
